Laboratory results: PubChem BioAssay AID743454 (Peter MacCallum Cancer Centre, 2014)
Aim: 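Search for knock-downs that restore vorinostat killing in resistant colon cancer cells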 (primary screen). System: human HCT116-VR colon cancer cells, selected for vorinostat resistance. Knock-down reagent: siRNA pool against human genes, 40 nM siRNA pool. Time to read-out: vorinostat for 24 h, read-out about 72 h after transfection. Conditions: vorinostat at 2.5 µM final. Measurement: 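Cell viability by CellTiter-Fluor and caspase 3/7 activity by luminescence, each scaled to mock wells per plate, duplicates averaged, then robust z-scored over all plates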. Direction: viability robust z-score: higher = more viable cells than screen typical; caspase robust z-score: higher = more caspase 3/7 activity than screen typical. Hit rule: 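Hits are knock-downs in viability class RV1/RV2 or caspase class CA1/CA2, excluding ones that killed cells in the no-drug cell-count arm; hits then retested with single siRNAs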.
The deposit covers about 18,000 reagents; this is a random part of them. Over the whole deposit, 450 (2.5%) got an active call. 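Single biological run; no consistent viability z cut-off exists, so the class columns, not z-scores, define the calls.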 Reagent sequences are not shown.

| gene knocked down | viability hit class | caspase hit class | viability robust z-score | caspase robust z-score | Outcome |
| --- | --- | --- | --- | --- | --- |
| USP7 (ubiquitin specific peptidase 7) | no change | no change | 0.9 | 0.04 | inactive |
| GIPC2 (GIPC PDZ domain containing family member 2) | no change | no change | -0.15 | -0.28 | inactive |
| OR5AR1 (olfactory receptor family 5 subfamily AR member 1) | no change | no change | -0.7 | 2.64 | inactive |
| SPATA2 (spermatogenesis associated 2) | no change | no change | -0.73 | 0.5 | inactive |
| UBXN2B (UBX domain protein 2B) | no change | no change | 0.86 | 0.44 | inactive |
| ZNF317 (zinc finger protein 317) | no change | no change | -1.46 | 1.19 | inactive |
| LIPC (lipase C, hepatic type) | no change | no change | 0.4 | -0.73 | inactive |
| UBE2D4 (ubiquitin conjugating enzyme E2 D4) | no change | no change | 1.01 | 0.96 | inactive |
| IGSF10 (immunoglobulin superfamily member 10) | no change | no change | -1.18 | 2.39 | inactive |
| LHFPL3 (LHFPL tetraspan subfamily member 3) | no change | no change | -0.64 | -0.8 | inactive |
| C12orf76 (chromosome 12 open reading frame 76) | no change | no change | -0.96 | -1.12 | inactive |
| CASP5 (caspase 5) | no change | no change | -0.24 | 0.39 | inactive |
| B4GALT5 (beta-1,4-galactosyltransferase 5) | no change | no change | -0.44 | 0.12 | inactive |
| OTULIN (OTU deubiquitinase with linear linkage specificity) | no change | no change | -0.44 | -0.42 | inactive |
| SH3GL1 (SH3 domain containing GRB2 like 1, endophilin A2) | no change | no change | -0.46 | -0.12 | inactive |
| GPR183 (G protein-coupled receptor 183) | no change | no change | 1.31 | -0.02 | inactive |
| ACSL3 (acyl-CoA synthetase long chain family member 3) | no change | no change | -0.06 | -0.88 | inactive |
| UBTD2 (ubiquitin domain containing 2) | no change | no change | -1.27 | 2.24 | inactive |
| ASB11 (ankyrin repeat and SOCS box containing 11) | no change | no change | -1 | 0.73 | inactive |
| KNG1 (kininogen 1) | no change | no change | 0.31 | -0.36 | inactive |
| PVR (PVR cell adhesion molecule) | no change | no change | -0.02 | -1.04 | inactive |
| TMEM106B (transmembrane protein 106B) | no change | no change | 0.3 | 0.16 | inactive |
| MOGAT3 (monoacylglycerol O-acyltransferase 3) | no change | no change | -0.51 | 2.4 | inactive |
| WDR36 (WD repeat domain 36) | no change | no change | -1.39 | -0.5 | inactive |
| MYCN (MYCN proto-oncogene, bHLH transcription factor) | no change | no change | 0.56 | -0.66 | inactive |
| SCIMP (SLP adaptor and CSK interacting membrane protein) | no change | no change | -0.44 | -0.67 | inactive |
| H4C6 (H4 clustered histone 6) | no change | no change | -0.02 | -1.34 | inactive |
| FSCB (fibrous sheath CABYR binding protein) | no change | no change | 0.3 | 2.18 | inactive |
| OR2L3 (olfactory receptor family 2 subfamily L member 3) | no change | no change | -0.52 | 0.28 | inactive |
| HABP4 (hyaluronan binding protein 4) | no change | no change | 0.42 | -0.4 | inactive |
| OR5H2 (olfactory receptor family 5 subfamily H member 2) | no change | no change | 0.65 | -0.52 | inactive |
| PNLDC1 (PARN like ribonuclease domain containing exonuclease 1) | no change | no change | 0.8 | -0.73 | inactive |
| MT1B (metallothionein 1B) | no change | no change | -1.19 | 0.26 | inactive |
| AARSD1 (alanyl-tRNA synthetase domain containing 1) | no change | no change | -0.18 | 0 | inactive |
| RAMP1 (receptor activity modifying protein 1) | no change | no change | -1.12 | -0.3 | inactive |
| POLR2L (RNA polymerase II, I and III subunit L) | no change | CA2 (caspase activation) | -3.59 | 7.05 | active |
| CAPN12 (calpain 12) | no change | CA2 (caspase activation) | -1.63 | 5.43 | active |
| USP43 (ubiquitin specific peptidase 43) | no change | no change | -0.5 | 0.08 | inactive |
| HAPLN4 (hyaluronan and proteoglycan link protein 4) | no change | no change | -0.44 | 3.48 | inactive |
| RXFP1 (relaxin family peptide receptor 1) | no change | no change | -0.18 | 0.34 | inactive |
| KCNK17 (potassium two pore domain channel subfamily K member 17) | no change | no change | 0.47 | 1.81 | inactive |
| ZWILCH (zwilch kinetochore protein) | no change | no change | -1.04 | -0.05 | inactive |
| PLAAT1 (phospholipase A and acyltransferase 1) | no change | no change | -0.84 | -0.92 | inactive |
| CLEC4D (C-type lectin domain family 4 member D) | no change | no change | -0.32 | -0.04 | inactive |
| TDRD6 (tudor domain containing 6) | no change | no change | 1.69 | 0.06 | inactive |
| PCDHGA12 (protocadherin gamma subfamily A, 12) | no change | no change | 0.56 | -0.24 | inactive |
| GSG1L (GSG1 like) | no change | no change | -0.3 | -0.8 | inactive |
| GAGE5 (G antigen 5) | no change | no change | 0.22 | -0.78 | inactive |
| SCP2D1 (SCP2 sterol binding domain containing 1) | no change | no change | 0.63 | 0.66 | inactive |
| CAP2 (cyclase associated actin cytoskeleton regulatory protein 2) | no change | no change | 0.36 | 2.71 | inactive |
| FBXO42 (F-box protein 42) | no change | no change | 0.69 | 0.37 | inactive |
| NAPEPLD (N-acyl phosphatidylethanolamine phospholipase D) | no change | no change | 1.45 | -0.45 | inactive |
| EYS (EGF-like photoreceptor maintenance factor) | no change | no change | -0.55 | 0.73 | inactive |
| AHSG (alpha 2-HS glycoprotein) | no change | no change | -1.25 | -1.32 | inactive |
| MRPL47 (mitochondrial ribosomal protein L47) | no change | no change | -0.36 | 0.92 | inactive |
| SPRR3 (small proline rich protein 3) | no change | no change | 0.2 | -0.07 | inactive |
| WNT1 (Wnt family member 1) | no change | no change | -1.11 | 1.98 | inactive |

Part of the list above, limited to “viability hit class”:
GIPC2 (GIPC PDZ domain containing family member 2)	no change
OR5AR1 (olfactory receptor family 5 subfamily AR member 1)	no change
SPATA2 (spermatogenesis associated 2)	no change
UBXN2B (UBX domain protein 2B)	no change
ZNF317 (zinc finger protein 317)	no change
LIPC (lipase C, hepatic type)	no change
UBE2D4 (ubiquitin conjugating enzyme E2 D4)	no change
